Taken from: PubChem BioAssay AID504793 (Drosophila RNAi Screening Center, 2011)
Screen: 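Genes required for cells to halt at G2/M after double-strand DNA breaks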 (primary screen). Cells: Drosophila S2R+ cells. Knock-down reagent: long dsRNA against Drosophila genes, about 0.25 µg dsRNA per well. Time to read-out: 4 days of dsRNA, then 4 hours of drug before read-out. Conditions: doxorubicin 0.5 µM for 4 hours to cause double-strand breaks, in cells also given a low, harmless dose of dsRNA against nbs to sensitise the assay. Detection: 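Mitotic index as the number of phospho-histone H3-positive cells in each well following doxorubicin, given as raw counts without normalisation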. Scale: mitotic cells: higher = more cells in mitosis, weaker G2 arrest. Call rule: 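Genes are called active only when high mitotic counts were reproduced with independent dsRNAs and mitosis was checked for delay without damage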. Meaning of the calls: active = confirmed in follow-up tests; inactive = not confirmed.
In all, the deposit lists about 23,000 reagents; below is a random part of those with a known target gene and a result. Over the whole deposit, 62 (0.27%) were called active. 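Calls come from follow-up tests whose scores are not deposited, so confirmed genes may have low counts here; counts are not normalised per plate.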 The raw values are shown without normalisation. Names joined by + are all predicted targets of the reagent.

| target | DRSC id | mitotic cells, replicate 1 | activity call |
| --- | --- | --- | --- |
| CG12516 | DRSC14524 | 10 | inactive |
| Golgin104 (Golgin 104) | DRSC10459 | 15 | inactive |
| Golgin104 (Golgin 104) | DRSC26351 | – | inactive |
| mamo (maternal gene required for meiosis) | DRSC19370 | 15 | inactive |
| mamo (maternal gene required for meiosis) | DRSC29723 | 7 | inactive |
| CG14014 | DRSC02345 | 52 | inactive |
| Rbp1-like | DRSC19828 | 6 | inactive |
| Rbp1-like | DRSC22075 | 11 | inactive |
| Rbp1-like | DRSC25442 | 4 | inactive |
| Vha13 (Vacuolar H[+] ATPase 13kD subunit) | DRSC16895 | 10 | inactive |
| RpL28 + snoRNA:Or-CD12 | DRSC08293 | 3 | inactive |
| ppk25 (pickpocket 25) | DRSC04973 | 1 | inactive |
| ppk25 (pickpocket 25) | DRSC27513 | 5 | inactive |
| Dad1 (Defender against apoptotic cell death 1) | DRSC02263 | 8 | inactive |
| rgr (regular) | DRSC06487 | 9 | inactive |
| rgr (regular) | DRSC07229 | 4 | inactive |
| CG9981 | DRSC20225 | 5 | inactive |
| Cht8 (Chitinase 8) | DRSC04546 | 12 | inactive |
| CG32436 | DRSC11683 | 6 | inactive |
| CG32436 | DRSC11796 | 3 | inactive |
| CG13026 | DRSC09906 | 2 | inactive |
| CG30060 | DRSC05419 | 10 | inactive |
| btsz (bitesize) | DRSC16231 | 7 | inactive |
| snz (snazarus) | DRSC17969 | 6 | inactive |
| ZnT49B (Zinc transporter 49B) | DRSC07225 | 3 | inactive |
| glob3 (globin 3) | DRSC12261 | 1 | inactive |
| CG11999 | DRSC12185 | 5 | inactive |
| CG14598 | DRSC12541 | 4 | inactive |
| CG14598 | DRSC30074 | 2 | inactive |
| CG4293 | DRSC18557 | 11 | inactive |
| trbd (trabid) | DRSC16494 | 7 | inactive |
| trbd (trabid) | DRSC27999 | 7 | inactive |
| nsr (novel spermatogenesis regulator) | DRSC04427 | 7 | inactive |
| nsr (novel spermatogenesis regulator) | DRSC22806 | 12 | inactive |
| d4 | DRSC04881 | 5 | inactive |
| d4 | DRSC22674 | 18 | inactive |
| d4 | DRSC26581 | 9 | inactive |
| CG9021 | DRSC03128 | 7 | inactive |
| Gem3 (Gemin 3) | DRSC11144 | 4 | inactive |
| CG18063 | DRSC01968 | 8 | inactive |
| TFAM (mitochondrial transcription factor A) | DRSC15552 | 6 | inactive |
| TFAM (mitochondrial transcription factor A) | DRSC26903 | 5 | inactive |
| kat80 (katanin 80) | DRSC20344 | 11 | inactive |
| kat80 (katanin 80) | DRSC20345 | 14 | inactive |
| CG4459 | DRSC15582 | 6 | inactive |
| Pli (Pellino) | DRSC16792 | 10 | inactive |
| Acsx1R (Acyl-CoA synthetase X1 R) | DRSC14339 | 13 | inactive |
| CG5674 | DRSC23176 | 8 | inactive |
| CG5674 | DRSC28320 | 1 | inactive |
| CG17782 | DRSC23227 | 3 | inactive |
| Tti1 (Telo2 interacting protein 1) | DRSC15163 | 7 | inactive |
| Tti1 (Telo2 interacting protein 1) | DRSC27694 | 6 | inactive |
| CG10628 | DRSC02080 | 8 | inactive |
| Cpr31A (Cuticular protein 31A) | DRSC02779 | 5 | inactive |
| Cpr31A (Cuticular protein 31A) | DRSC28742 | 6 | inactive |
| Adsl (Adenylosuccinate lyase) | DRSC15500 | 14 | inactive |
| CG31111 | DRSC14649 | 6 | inactive |
| dpy (dumpy) | DRSC00233 | 4 | inactive |
| dpy (dumpy) | DRSC00234 | 8 | inactive |
| dpy (dumpy) | DRSC00472 | 4 | inactive |
| Arc42 (Activator-recruited cofactor subunit 42) | DRSC14340 | 14 | inactive |
| Arc42 (Activator-recruited cofactor subunit 42) | DRSC15627 | 6 | inactive |
| RpL9 (Ribosomal protein L9) | DRSC03418 | 5 | inactive |
| Ssadh (Succinic semialdehyde dehydrogenase) | DRSC15621 | 6 | inactive |
| Ssadh (Succinic semialdehyde dehydrogenase) | DRSC27782 | 10 | inactive |
| CG17770 + Acam | DRSC14110 | 14 | inactive |
| CG17770 + Acam | DRSC15264 | 8 | inactive |
| CG17770 + Acam | DRSC24252 | 4 | inactive |
| CG17770 + Acam | DRSC29529 | 6 | inactive |
| Prosbeta5R1 (Proteasome beta5 subunit-related 1) | DRSC04581 | 7 | inactive |
| Prosbeta5R1 (Proteasome beta5 subunit-related 1) | DRSC29901 | 10 | inactive |
| yip3 (yippee interacting protein 3) | DRSC04724 | 4 | inactive |
| Gr59b (Gustatory receptor 59b) | DRSC04179 | 3 | inactive |
| Shawl (Shaw-like) | DRSC02209 | 6 | inactive |
| Shawl (Shaw-like) | DRSC02748 | 5 | inactive |
| Shawl (Shaw-like) | DRSC24307 | 6 | inactive |
| Sf3b2 (Splicing factor 3b subunit 2) | DRSC00619 | 2 | inactive |
| CG9822 | DRSC04568 | 8 | inactive |
| RhoGAP102A (Rho GTPase activating protein at 102A) | DRSC17145 | 14 | inactive |
| Art9 (Arginine methyltransferase 9) | DRSC16584 | 3 | inactive |
| Ork1 (Open rectifier K[+] channel 1) | DRSC20266 | 6 | inactive |
| upSET | DRSC23289 | 10 | inactive |
| CG4116 | DRSC18348 | 9 | inactive |
| CG4116 | DRSC29381 | 5 | inactive |
| klg (klingon) | DRSC13591 | 55 | inactive |
| klg (klingon) | DRSC16978 | 8 | inactive |
| Lcp65Af | DRSC11213 | 5 | inactive |
| Lcp65Af | DRSC25142 | 5 | inactive |
| CG12974 | DRSC11684 | 4 | inactive |
| CG5808 | DRSC14124 | 7 | inactive |
| lwr (lesswright) | DRSC00828 | 14 | inactive |
| lwr (lesswright) | DRSC27034 | 18 | active |
| CG18476 | DRSC15281 | 7 | inactive |
| vers (versatile) | DRSC23232 | 5 | inactive |
| SCAP (SREBP cleavage activating protein) | DRSC04869 | 3 | inactive |
| SCAP (SREBP cleavage activating protein) | DRSC04907 | 3 | inactive |
| rumpel | DRSC18436 | 14 | inactive |
| CG7236 | DRSC03037 | 3 | inactive |
| CG7236 | DRSC26976 | 2 | inactive |
| rpk (ripped pocket) | DRSC12386 | 1 | inactive |
| rpk (ripped pocket) | DRSC21656 | 4 | inactive |
| Ugt35D1 (UDP-glycosyltransferase family 35 member D1) | DRSC15107 | 8 | inactive |
| CG7382 | DRSC03052 | 8 | inactive |
| CG7382 | DRSC27512 | 3 | inactive |
| CG32132 (retired record) | DRSC23128 | 2 | inactive |
| CNMa (CNMamide) | DRSC08405 | 2 | inactive |
| hebe | DRSC05192 | 4 | inactive |
| hebe | DRSC06605 | 15 | inactive |
| hebe | DRSC21614 | 15 | inactive |
| hebe | DRSC24505 | 10 | inactive |
